The list shows a part of the results.
Tests used:
Assay in all cases: glycan array binding signal (z-score within array); higher = stronger binding
Settings in all cases: glycan notation: IUPAC condensed, linker removed
[1] = molecular target: Neu5Ac(a2-3)Gal(b1-3)GlcNAc(b1-3)Gal(b1-3)GlcNAc
How it was run: (§1)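 Glycan array data came from 3228 arrays in the Consortium for Functional Glycomics database, and only arrays with an available protein sequence were kept. Glycan names were put into IUPAC-condensed notation, and columns mapping to the same glycan were averaged. The binding signal is a within-array Z-score, averaged across arrays of one protein sequence run at different concentrations or buffers and across linkers. A negative Z-score can be read as non-binding.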

[2] = molecular target: Neu5Ac(a2-3)Gal(b1-3)GlcNAc(b1-3)Gal(b1-4)GlcNAc
How it was run: as §1

[3] = molecular target: Neu5Ac(a2-3)Gal(b1-3)GlcNAc(b1-3)GalNAc
How it was run: as §1

[4] = molecular target: Neu5Ac(a2-3)Gal(b1-3)GlcNAc6S
How it was run: as §1

[5] = molecular target: Neu5Ac(a2-3)Gal(b1-3)[Fuc(a1-4)]GlcNAc
How it was run: as §1

[6] = molecular target: Neu5Ac(a2-3)Gal(b1-3)[Fuc(a1-4)]GlcNAc(b1-3)Gal(b1-3)[Fuc(a1-4)]GlcNAc
How it was run: as §1

[7] = molecular target: Neu5Ac(a2-3)Gal(b1-3)[Fuc(a1-4)]GlcNAc(b1-3)Gal(b1-4)[Fuc(a1-3)]GlcNAc
How it was run: as §1

[8] = molecular target: Neu5Ac(a2-3)Gal(b1-3)[Neu5Ac(a2-3)Gal(b1-4)]GlcNAc
How it was run: as §1

[9] = molecular target: Neu5Ac(a2-3)Gal(b1-3)[Neu5Ac(a2-6)]GalNAc
How it was run: as §1

Neu5Ac(a2-3)Gal(b1-4)Glc = molecular target: Neu5Ac(a2-3)Gal(b1-4)Glc
How it was run: as §1

[10] = molecular target: Neu5Ac(a2-3)Gal(b1-4)GlcNAc
How it was run: as §1

[11] = molecular target: Neu5Ac(a2-3)Gal(b1-4)GlcNAc(b1-2)Man(a1-3)[GlcNAc(b1-2)Man(b1-4)GlcNAc(b1-2)Man(a1-6)]Man(b1-4)GlcNAc(b1-4)GlcNAc
How it was run: as §1

[12] = molecular target: Neu5Ac(a2-3)Gal(b1-4)GlcNAc(b1-2)Man(a1-3)[Neu5Ac(a2-6)Gal(b1-4)GlcNAc(b1-2)Man(a1-6)]Man(b1-4)GlcNAc(b1-4)GlcNAc
How it was run: as §1

[13] = molecular target: Neu5Ac(a2-3)Gal(b1-4)GlcNAc(b1-3)Gal(b1-3)GlcNAc
How it was run: as §1

[14] = molecular target: Neu5Ac(a2-3)Gal(b1-4)GlcNAc(b1-3)Gal(b1-4)GlcNAc
How it was run: as §1

[15] = molecular target: Neu5Ac(a2-3)Gal(b1-4)GlcNAc(b1-3)Gal(b1-4)GlcNAc(b1-3)Gal(b1-4)GlcNAc
How it was run: as §1

[16] = molecular target: Neu5Ac(a2-3)Gal(b1-4)GlcNAc(b1-3)Gal(b1-4)[Fuc(a1-3)]GlcNAc
How it was run: as §1

[17] = molecular target: Neu5Ac(a2-3)Gal(b1-4)GlcNAc(b1-3)GalNAc
How it was run: as §1

[18] = molecular target: Neu5Ac(a2-3)Gal(b1-4)GlcNAc(b1-6)[Gal(b1-3)]GalNAc
How it was run: as §1

[19] = molecular target: Neu5Ac(a2-3)Gal(b1-4)GlcNAc(b1-6)[Neu5Ac(a2-3)Gal(b1-3)]GalNAc
How it was run: as §1

[20] = molecular target: Neu5Ac(a2-3)Gal(b1-4)GlcNAc6S
How it was run: as §1

[21] = molecular target: Neu5Ac(a2-3)Gal(b1-4)[Fuc(a1-3)]GlcNAc
How it was run: as §1

[22] = molecular target: Neu5Ac(a2-3)Gal(b1-4)[Fuc(a1-3)]GlcNAc(b1-3)Gal
How it was run: as §1

[23] = molecular target: Neu5Ac(a2-3)Gal(b1-4)[Fuc(a1-3)]GlcNAc(b1-3)Gal(b1-4)GlcNAc
How it was run: as §1

[24] = molecular target: Neu5Ac(a2-3)Gal(b1-4)[Fuc(a1-3)]GlcNAc(b1-3)Gal(b1-4)[Fuc(a1-3)]GlcNAc(b1-3)Gal(b1-4)[Fuc(a1-3)]GlcNAc
How it was run: as §1

[25] = molecular target: Neu5Ac(a2-3)Gal(b1-4)[Fuc(a1-3)]GlcNAc(b1-3)GalNAc
How it was run: as §1

[26] = molecular target: Neu5Ac(a2-3)Gal(b1-4)[Fuc(a1-3)]GlcNAc(b1-6)[Gal(b1-3)]GalNAc
How it was run: as §1

[27] = molecular target: Neu5Ac(a2-3)Gal(b1-4)[Fuc(a1-3)]GlcNAc(b1-6)[Neu5Ac(a2-3)Gal(b1-3)]GalNAc
How it was run: as §1

[28] = molecular target: Neu5Ac(a2-3)Gal(b1-4)[Fuc(a1-3)]GlcNAc6S
How it was run: as §1

[29] = molecular target: Neu5Ac(a2-3)Gal6S(b1-4)GlcNAc
How it was run: as §1

[30] = molecular target: Neu5Ac(a2-3)Gal6S(b1-4)[Fuc(a1-3)]GlcNAc
How it was run: as §1

Neu5Ac(a2-3)GalNAc = molecular target: Neu5Ac(a2-3)GalNAc
How it was run: as §1

[31] = molecular target: Neu5Ac(a2-3)GalNAc(b1-4)GlcNAc
How it was run: as §1

[32] = molecular target: Neu5Ac(a2-3)[GalNAc(b1-4)]Gal(b1-4)Glc
How it was run: as §1

[33] = molecular target: Neu5Ac(a2-3)[GalNAc(b1-4)]Gal(b1-4)GlcNAc
How it was run: as §1

[34] = molecular target: Neu5Ac(a2-3)[GalNAc(b1-4)]Gal(b1-4)GlcNAc(b1-3)GalNAc
How it was run: as §1

[35] = molecular target: Neu5Ac(a2-3)[Neu5Ac(a2-6)]GalNAc
How it was run: as §1

Neu5Ac(a2-6)Gal = molecular target: Neu5Ac(a2-6)Gal
How it was run: as §1

Neu5Ac(a2-6)Gal(b1-4)Glc = molecular target: Neu5Ac(a2-6)Gal(b1-4)Glc
How it was run: as §1

[36] = molecular target: Neu5Ac(a2-6)Gal(b1-4)GlcNAc
How it was run: as §1

B1: BSR4 (Toxoplasma gondii), Q95NL6 (protein)
chain: MVMMGSMQQRRGGLRSNARQLLAVCMSGVVFFSSGQAVADNLLEGLLHRTLQQQVEVTSRLTVAGSDAKCDFFTPATQDSPPVSGSLTLSKGRMTATFECSATQALSISTIPTNIEQNVCDPKKTTNGTVCQFGANGSAGTEVTLKDLLETDRIVNWKVNEQREESNKSQKWSLELHNEDLPLTDKAFVVGCQATSAARGTESGKTAACKLTVNVEARASSLAENNVVTCAYGKGSNPNPVEVEMSTEKNTLTINCGSDGSLQPTTYAEEYCVADSKDVNRCSTTRFVEIFPKFLKSWWVTETQKRTSATLTIPQTDLPEADQQFLVGCVPKKTAPEDPKKDKESGTETGAPTSCTVLVTVKAASSASHASPTVQILAAASSAAA
glycan array binding signal (z-score) [1]: -0.423
glycan array binding signal (z-score) [2]: -0.706
glycan array binding signal (z-score) [3]: -0.487
glycan array binding signal (z-score) [4]: 0.433
glycan array binding signal (z-score) [5]: 0.295
glycan array binding signal (z-score) [6]: -0.158
glycan array binding signal (z-score) [7]: -0.667
glycan array binding signal (z-score) [8]: -0.729
glycan array binding signal (z-score) [9]: 0.026
glycan array binding signal (z-score) (Neu5Ac(a2-3)Gal(b1-4)Glc): 0.026
glycan array binding signal (z-score) [10]: -0.069
glycan array binding signal (z-score) [11]: -0.195
glycan array binding signal (z-score) [12]: -0.723
glycan array binding signal (z-score) [13]: -0.355
glycan array binding signal (z-score) [14]: -0.402
glycan array binding signal (z-score) [15]: -0.851
glycan array binding signal (z-score) [16]: 0.289
glycan array binding signal (z-score) [17]: 0.05
glycan array binding signal (z-score) [18]: -0.443
glycan array binding signal (z-score) [19]: 0.238
glycan array binding signal (z-score) [20]: 0.344
glycan array binding signal (z-score) [21]: -0.74
glycan array binding signal (z-score) [22]: -0.509
glycan array binding signal (z-score) [23]: 1.14
glycan array binding signal (z-score) [24]: -0.175
glycan array binding signal (z-score) [25]: 3.61
glycan array binding signal (z-score) [26]: 1.73
glycan array binding signal (z-score) [27]: 0.126
glycan array binding signal (z-score) [28]: -0.691
glycan array binding signal (z-score) [29]: -0.227
glycan array binding signal (z-score) [30]: -0.142
glycan array binding signal (z-score) (Neu5Ac(a2-3)GalNAc): 0.417
glycan array binding signal (z-score) [31]: 0.417
glycan array binding signal (z-score) [32]: -0.618
glycan array binding signal (z-score) [33]: 0.277
glycan array binding signal (z-score) [34]: -0.472
glycan array binding signal (z-score) [35]: -0.275
glycan array binding signal (z-score) (Neu5Ac(a2-6)Gal): 0.196
glycan array binding signal (z-score) (Neu5Ac(a2-6)Gal(b1-4)Glc): -0.449
glycan array binding signal (z-score) [36]: 0.268

— the supplement of paper PMC8728848
